From PubChem BioAssay AID488837 (National Center for Advancing Translational Sciences (NCATS), 2010)
Out of some 330,000 compounds screened, about 20 (0.006%) were called active. Inconclusive results, whose numbers are uncertain, are shown with a selection of clear calls. Calls follow the shape of the dose curve; as a rule, active = well fitted inhibition curve with a large enough effect; inconclusive = small, poorly fitted or top-dose-only effect, or effect the other way; inactive = flat fitted curve, though single readings scatter. Where the call is inconclusive, the potency comes from a doubtful curve fit.

By UniProt entry, the sequences of proteins in these tests, tags left out.
UniProt O00167, whole entry, looked up: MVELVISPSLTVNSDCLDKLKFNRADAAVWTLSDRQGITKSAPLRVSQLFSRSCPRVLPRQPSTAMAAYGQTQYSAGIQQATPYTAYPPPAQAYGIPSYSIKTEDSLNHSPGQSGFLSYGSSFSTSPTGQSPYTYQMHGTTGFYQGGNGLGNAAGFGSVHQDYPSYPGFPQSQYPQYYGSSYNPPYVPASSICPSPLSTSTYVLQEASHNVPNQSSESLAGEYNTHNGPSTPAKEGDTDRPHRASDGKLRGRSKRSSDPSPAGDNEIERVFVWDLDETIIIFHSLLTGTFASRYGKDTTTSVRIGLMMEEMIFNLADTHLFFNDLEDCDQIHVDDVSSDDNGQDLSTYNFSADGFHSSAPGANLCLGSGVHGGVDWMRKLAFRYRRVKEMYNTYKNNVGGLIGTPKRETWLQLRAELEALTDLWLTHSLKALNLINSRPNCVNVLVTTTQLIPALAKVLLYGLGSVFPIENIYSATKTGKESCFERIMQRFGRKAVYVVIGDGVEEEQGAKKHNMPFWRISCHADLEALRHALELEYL

These compounds were tested against Protein phosphatase EYA2 (Homo sapiens) (UniProt O00167) (assay: qHTS Assay for Inhibitors of the Phosphatase Activity of Eya2). Conditions: recombinant Eya2, OMFP fluorescence dephosphorylation (OMFP is methylfluorescein phosphate); activity, negative = inhibition: at 76.9 µM (top of the series) unless noted.
In short: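 Eya2 protein (added as 0.2 uM solution) was preincubated with compound for 10 min at ambient temperature in 50 mM HEPES pH 7.5, 50 mM NaCl, 5 uM MgCl2, 0.05% BSA, 1 mM DTT. OMFP (added at 50 uM) then reacted 10 min; fluorescence read at 485/525 nm.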
% is scaled to controls: 0 for no effect and ±100 for the full control effect; potency is read from the fitted curve at half-maximal effect.

| SMILES | Potency | activity, negative = inhibition |
| --- | --- | --- |
| CCOc1ccc2c(=O)c(Oc3ccccc3)c(C)oc2c1 | inconclusive: 31.6 µM [inhibitor, partial curve] |  |
| CC(O)[C@@H](NC(=O)C1CCC(CNC(=O)[C@H](Cc2ccccc2)NC(=O)OC(C)(C)C)CC1)C(=O)O (some centres undefined) | inconclusive: 112 µM [inhibitor, partial curve] |  |
| COc1ccc(/C=C/C(=O)NCC(=O)N/N=C/c2cc(Br)ccc2OC)cc1 | inactive |  |
| CCC(C)N1C(=O)/C(=C/c2c(NCCCOC(C)C)nc3c(C)cccn3c2=O)SC1=S (centres undefined) | inconclusive: 158 µM [activator, partial curve] |  |
| COc1ccc(N2C(=O)Cc3c2nc(N)c(C#N)c3N)cc1 | inconclusive: 89.1 µM [inhibitor, single point] |  |
| CCOC(=O)/C(=C/C=C1\Sc2cc(C)c(C)cc2N1CC)C(C)=O | inconclusive: 63.1 µM [activator, partial curve, poor fit] |  |
| Nc1nc2ccccc2[nH]1 | inconclusive: 20 µM [inhibitor, single point] |  |
| O=C1CN(S(=O)(=O)c2ccc(F)cc2)CCN1 | inactive |  |
| CCC(CO)NC(=O)c1ccccc1C(F)(F)F (centres undefined) | inconclusive: 25.1 µM [inhibitor, single point] |  |
| CCN(C(=O)CSc1nc2cc(C(=O)O)ccc2c(=O)n1Cc1ccccc1)c1ccccc1 | inconclusive: 22.4 µM [inhibitor, single point] |  |
| Clc1ccc(-c2cn3cc(Cl)ccc3n2)cc1 | inconclusive: 35.5 µM [inhibitor, partial curve, poor fit] |  |
| O=C(N/N=C/c1cccc(Cl)c1)C(c1ccncc1)N1CCOCC1 (centres undefined) | inconclusive: 100 µM [inhibitor, partial curve, poor fit] |  |
| O=C(NCCCn1ccnc1)C(=O)NCC1OCCN1S(=O)(=O)c1ccc2c(c1)OCCO2 (centres undefined) | inactive |  |
| O=C(C(O)c1ccccc1)N1N=C(c2ccccc2)CC1(O)C(F)(F)F (centres undefined) | inconclusive: 100 µM [inhibitor, single point] |  |
| C#Cc1ccc(CN2CCC(Oc3cc(C(=O)NC4CC4)ccc3OC)CC2)cc1 | inactive |  |
| CC1CCCCC1NC(=O)c1ccc(S(=O)(=O)NCC2CCCO2)cc1 (centres undefined) | inconclusive: 25.1 µM [inhibitor, single point] |  |
| Cc1cccc(C)c1NC(=O)CN(C)C(=O)c1cccc(-n2cccc2)c1 | inactive |  |
| O=c1c2c(-c3cccc([N+](=O)[O-])c3)ccnc2[nH]n1-c1ccccc1 | inconclusive: 178 µM [inhibitor, single point] |  |
| Cc1cccc(-c2nc(CS(=O)CC(=O)NCCc3ccccc3)c(C)o2)c1 (centres undefined) | inactive |  |
| CCCOc1ccc(C(=O)N2CCN(c3ccc(N)cc3Cl)CC2)cc1 | inconclusive: 200 µM [inhibitor, partial curve, poor fit] |  |
| c1ccc(COC(CN2CCCCCC2)CN2CCCCCC2)cc1 | inconclusive: 70.8 µM [inhibitor, partial curve, poor fit] |  |
| O=c1ccc2c(-c3ccccc3S(=O)(=O)O)c3ccc(O)c(O)c3oc-2c1O | inconclusive: 100 µM [inhibitor, partial curve] |  |
| Cc1ccc(C(=O)CC(=O)c2ccccc2)cc1 | inactive |  |

| SMILES | Potency | activity, negative = inhibition |
| --- | --- | --- |
| CN(C)c1cc[n+](CC(=O)Nc2ccc([N+](=O)[O-])cc2Cl)cc1 | inconclusive: 112 µM [inhibitor, single point] |  |
| COc1ccccc1CNc1ccc(CNc2ncn[nH]2)cc1 | inconclusive: 28.2 µM [inhibitor, single point] |  |
| Nc1cc(-c2ccc(OC(F)(F)F)cc2)nn1-c1ccc(Cl)c(Cl)c1 | inconclusive: 100 µM [inhibitor, single point] |  |
| O=C(N/N=C/c1cc([N+](=O)[O-])cc(Br)c1O)C12CC3CCC(CC(C3)C1)C2 | inconclusive: 56.2 µM [inhibitor, single point] |  |
| O=C(COC(=O)c1cc2ccccc2oc1=O)Nc1ccc(F)cc1F | inconclusive: 89.1 µM [inhibitor, single point] |  |
| Cc1nc(N2CCN(C(=O)c3ccco3)CC2)[nH]c(=O)c1C | inconclusive: 20 µM [inhibitor, single point] |  |
| CCOC(=O)/C(=C\C=C1/Sc2ccccc2N1CC)C(C)=O | inconclusive: 39.8 µM [activator, partial curve] |  |
| CCN(CC)c1ccc(/C=C(\C#N)c2nc(-c3cccs3)c(NC(C)=O)s2)cc1 | inconclusive: 25.1 µM [activator, partial curve] |  |
| O=C(/C=C/c1cn(-c2ccccc2)nc1-c1cccs1)NCCN1CCOCC1 |  | inconclusive: -33.1% [inhibitor] |
| COc1cccc(/C=N/NC(=O)CNC(=O)COc2ccccc2)c1O | inactive |  |
| COc1ccc(C(=O)N(C)Cc2cnn(Cc3ccccc3)c2)cc1S(=O)(=O)N1CCOCC1 | inconclusive: 89.1 µM [inhibitor, single point] |  |
| O=C(CSc1nnc(NC(=O)c2ccccc2C(=O)O)s1)Nc1ccccc1Cl |  | inconclusive: -31.8% [inhibitor] |
| Cc1ccccc1C1=N/C(=C/c2cccnc2)C(=O)O1 | inconclusive: 15.8 µM [inhibitor, single point] |  |
| COc1ccc(NC(=O)/C=C/c2cc(Br)ccc2OC)cc1 | inconclusive: 35.5 µM [inhibitor, partial curve, poor fit] |  |
| CCOc1ncccc1C(=O)OCC(=O)N1CCC(C)CC1 | inconclusive: 89.1 µM [inhibitor, partial curve, poor fit] |  |
| COc1ccc(Nc2ncnc3sccc23)cc1OC | inactive |  |
| COC(=O)c1cc2c(-c3ccccc3)c(C)c3ccccn3c-2c1C(=O)OC | inactive |  |
| CCCCn1c(N)c(N(C)C(=O)c2c(C)nn(-c3ccccc3)c2C)c(=O)[nH]c1=O | inconclusive: 56.2 µM [inhibitor, partial curve, poor fit] |  |
| Cc1ccccc1-c1nc(-c2ccccn2)no1 | inactive |  |
| S=C(NCc1ccccn1)Nc1ccc(Cl)cc1 | inconclusive: 1580 µM [inhibitor, partial curve, poor fit] |  |
| CCOC(=O)CC(=O)CSc1nc2ccc(C)cc2cc1C#N | inactive |  |
| O=c1oc2c(CN3CCCCCC3)c(O)ccc2cc1-c1nc2ccccc2[nH]1 | inconclusive: 25.1 µM [activator, partial curve] |  |
| C=CCOc1ccc(C2=NO[C@@H]3[C@@H]4C[C@@H]([C@H]5C(=O)N(C)C(=O)[C@@H]45)[C@H]23)cc1 | inconclusive: 22.4 µM [inhibitor, single point] |  |

Copied from the list.
Entry for COc1cccc(/C=N/NC(=O)CNC(=O)COc2ccccc2)c1O under Potency: inactive
Entry for Cc1cccc(-c2nc(CS(=O)CC(=O)NCCc3ccccc3)c(C)o2)c1 (centres undefined) under Potency: inactive

Carrying on:

| SMILES | Potency | activity, negative = inhibition |
| --- | --- | --- |
| Cc1ccc(C2C=C(c3ccccc3OC(F)F)Nc3ncnn32)cc1 (centres undefined) | inactive |  |
| Fc1ccc(-c2n[nH]c(=S)c3ccccc23)cc1 | inconclusive: 25.1 µM [inhibitor, single point] |  |
| CN1CCN(c2ccc(CNS(=O)(=O)c3ccc(Cl)cc3)cc2)CC1 | inconclusive: 63.1 µM [inhibitor, single point] |  |
| CCCCOC(=O)Nc1nc2ccccc2s1 | inconclusive: 25.1 µM [inhibitor, single point] |  |
| CCOC(=O)N1CCC(NC(=O)C2CCN(C(=O)c3cc4oc(C)cc4n3Cc3c(F)cccc3Cl)CC2)CC1 | inconclusive: 31.6 µM [inhibitor, partial curve] |  |
| CCOc1cc(CNc2ccccc2)cc(Br)c1OCC(=O)NC(C)(C)C | inconclusive: 100 µM [inhibitor, single point] |  |
| Cc1ccc(Nc2cc(C)nn2-c2nc(C)cc(C)n2)cc1 | inactive |  |
| COc1ccc(-c2cc3nc(C)cc(N)n3n2)cc1 | inactive |  |
| OC1(c2ccccc2)Cc2cccc[n+]2C1c1ccccc1 (centres undefined) | inconclusive: 56.2 µM [inhibitor, partial curve, poor fit] |  |
| COCCOc1ccc(C(F)(F)F)cc1NC(=O)COC(=O)Cc1c[nH]c2ccccc12 |  | inconclusive: -36% [inhibitor] |
| Cc1cc(C)cc(OCC(=O)N2N=C(c3cccnc3)CC2(O)C(F)(F)F)c1 (centres undefined) | inactive |  |
| COc1cc(-c2ccccc2)nc2ccccc12 | inactive |  |
| Cc1cc(OCC(=O)NCc2cccnc2)c2c(C)c(C)c(=O)oc2c1 | inactive |  |
| CCOC(=O)/C(C#N)=C1\SS/C(=C(/C#N)C(=O)OCC)S1 | inconclusive: 224 µM [inhibitor, partial curve] |  |
| Cn1cccc1C(=O)C(=O)Nc1ccc(Cl)cc1 | inconclusive: 20 µM [inhibitor, single point] |  |
| C/C(=N\Nc1ccc(Cl)c(C(=O)O)c1)c1ccc(Br)s1 | inconclusive: 39.8 µM [inhibitor, partial curve, poor fit] |  |
| COc1ccc(-c2nnc(NC(=O)Cc3ccccc3)s2)c(OC)c1 | inconclusive: 112 µM [inhibitor, single point] |  |
| COc1cc(OC)cc(C(=O)c2c(C)c(C#N)c3ccccn23)c1 | inconclusive: 200 µM [inhibitor, partial curve, poor fit] |  |
| CCOC(=O)c1c(C)n(CC(O)CN(CC)CC)c2cc(Br)c(OC)cc12 (centres undefined) | inconclusive: 100 µM [inhibitor, single point] |  |
| O=c1[nH]c(/C=C\c2ccc(O)c(O)c2)nc(O)c1[N+](=O)[O-] | inactive |  |
| CN(Cc1cc2ccccc2[nH]c1=O)C(=O)COc1ccccc1 | inconclusive: 20 µM [inhibitor, single point] |  |
| Cc1cc(C(F)(F)F)nc(SCC(=O)NC2CCCCC2)n1 | inconclusive: 22.4 µM [inhibitor, single point] |  |
| COc1ccc(C(=O)/C=C/Nc2ccc(S(N)(=O)=O)cc2)cc1OC | inconclusive: 200 µM [inhibitor, partial curve, poor fit] |  |

In the list so far, eleven have a Cl atom.

| SMILES | Potency | activity, negative = inhibition |
| --- | --- | --- |
| Clc1ccc(-c2cn3cc(Cl)ccc3n2)cc1 | inconclusive: 35.5 µM [inhibitor, partial curve, poor fit] |  |
| O=C(N/N=C/c1cccc(Cl)c1)C(c1ccncc1)N1CCOCC1 (centres undefined) | inconclusive: 100 µM [inhibitor, partial curve, poor fit] |  |
| CCCOc1ccc(C(=O)N2CCN(c3ccc(N)cc3Cl)CC2)cc1 | inconclusive: 200 µM [inhibitor, partial curve, poor fit] |  |
| CN(C)c1cc[n+](CC(=O)Nc2ccc([N+](=O)[O-])cc2Cl)cc1 | inconclusive: 112 µM [inhibitor, single point] |  |
| Nc1cc(-c2ccc(OC(F)(F)F)cc2)nn1-c1ccc(Cl)c(Cl)c1 | inconclusive: 100 µM [inhibitor, single point] |  |
| O=C(CSc1nnc(NC(=O)c2ccccc2C(=O)O)s1)Nc1ccccc1Cl |  | inconclusive: -31.8% [inhibitor] |
| S=C(NCc1ccccn1)Nc1ccc(Cl)cc1 | inconclusive: 1580 µM [inhibitor, partial curve, poor fit] |  |
| CN1CCN(c2ccc(CNS(=O)(=O)c3ccc(Cl)cc3)cc2)CC1 | inconclusive: 63.1 µM [inhibitor, single point] |  |
| CCOC(=O)N1CCC(NC(=O)C2CCN(C(=O)c3cc4oc(C)cc4n3Cc3c(F)cccc3Cl)CC2)CC1 | inconclusive: 31.6 µM [inhibitor, partial curve] |  |
| Cn1cccc1C(=O)C(=O)Nc1ccc(Cl)cc1 | inconclusive: 20 µM [inhibitor, single point] |  |
| C/C(=N\Nc1ccc(Cl)c(C(=O)O)c1)c1ccc(Br)s1 | inconclusive: 39.8 µM [inhibitor, partial curve, poor fit] |  |
